Results are given in words; binding and its absence hold for the method and conditions named. Binding seen in cells or lysates may run through a third protein. Binding calls can cover weak binding; strength is not graded here.
The substances below were run against C/EBPβ (transfected into HEK293T cells) (UniProt P28033) (assay: co-IP; HEK293T cells cotransfected with C/EBPβ, one of ASH2L, DPY30, RBBP5 or WDR5, and full length lncLy6C or lncLy6C with mutated m6A sites (Mut1-Mut4); isotypic control).

Amino acid sequences for entries named in this document (tags omitted). A change or cut given only in a name is not applied to a line headed by its entry.
UniProt P28033: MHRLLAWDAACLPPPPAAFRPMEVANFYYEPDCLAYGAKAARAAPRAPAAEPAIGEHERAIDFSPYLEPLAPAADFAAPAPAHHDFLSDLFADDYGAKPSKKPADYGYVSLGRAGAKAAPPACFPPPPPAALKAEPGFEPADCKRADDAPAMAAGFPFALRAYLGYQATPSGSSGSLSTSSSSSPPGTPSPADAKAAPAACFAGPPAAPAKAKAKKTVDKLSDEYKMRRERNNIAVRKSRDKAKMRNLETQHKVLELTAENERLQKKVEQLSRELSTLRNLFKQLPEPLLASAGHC
UniProt Q91X20: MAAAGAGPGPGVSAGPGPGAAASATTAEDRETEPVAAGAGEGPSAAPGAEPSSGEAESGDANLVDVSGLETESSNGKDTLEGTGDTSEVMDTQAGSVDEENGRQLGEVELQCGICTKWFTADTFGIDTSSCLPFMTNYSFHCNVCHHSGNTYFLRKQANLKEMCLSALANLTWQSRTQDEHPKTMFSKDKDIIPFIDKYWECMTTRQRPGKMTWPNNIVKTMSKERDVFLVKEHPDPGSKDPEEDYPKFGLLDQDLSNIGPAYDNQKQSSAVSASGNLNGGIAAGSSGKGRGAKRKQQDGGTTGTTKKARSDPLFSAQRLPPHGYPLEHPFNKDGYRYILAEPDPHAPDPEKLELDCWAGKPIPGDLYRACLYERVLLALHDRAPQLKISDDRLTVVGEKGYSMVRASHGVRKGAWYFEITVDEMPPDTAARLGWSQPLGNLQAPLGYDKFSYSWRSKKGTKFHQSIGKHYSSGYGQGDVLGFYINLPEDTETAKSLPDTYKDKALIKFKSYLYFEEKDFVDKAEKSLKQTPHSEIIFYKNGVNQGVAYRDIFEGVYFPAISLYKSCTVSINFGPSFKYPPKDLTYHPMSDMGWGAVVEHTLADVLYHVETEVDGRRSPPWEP
UniProt Q99LT0: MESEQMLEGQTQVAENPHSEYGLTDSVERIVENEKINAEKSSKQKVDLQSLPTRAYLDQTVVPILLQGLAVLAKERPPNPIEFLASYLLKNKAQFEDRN
UniProt Q8BX09: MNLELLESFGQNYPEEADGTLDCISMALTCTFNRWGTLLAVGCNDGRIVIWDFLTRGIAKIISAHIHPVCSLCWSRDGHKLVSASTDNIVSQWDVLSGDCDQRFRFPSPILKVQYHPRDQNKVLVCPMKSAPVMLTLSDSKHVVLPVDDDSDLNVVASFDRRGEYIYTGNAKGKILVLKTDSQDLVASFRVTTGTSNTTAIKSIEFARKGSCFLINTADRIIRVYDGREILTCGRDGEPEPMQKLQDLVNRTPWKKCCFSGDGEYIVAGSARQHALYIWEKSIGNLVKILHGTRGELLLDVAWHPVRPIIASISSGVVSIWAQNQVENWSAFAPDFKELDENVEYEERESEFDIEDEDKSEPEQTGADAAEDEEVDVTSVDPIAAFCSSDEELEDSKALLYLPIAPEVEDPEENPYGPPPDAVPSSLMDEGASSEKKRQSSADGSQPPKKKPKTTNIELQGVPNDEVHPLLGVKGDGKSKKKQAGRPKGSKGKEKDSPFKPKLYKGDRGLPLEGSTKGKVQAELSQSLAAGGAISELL

binding, binds:
ASH2L (transfected into HEK293T cells) (from UniProt Q91X20 1-623)
DPY30 (transfected into HEK293T cells) (from UniProt Q99LT0 1-99)
RBBP5 (transfected into HEK293T cells) (from UniProt Q8BX09 1-538)

From paper PMC7683537
